# Laboratory results reported in paper PMC7461561.
# Sequences of proteins named here, by UniProt entry; tags and fusion partners are left off. A change or cut given only in a name is not applied to a line headed by its entry. Residues count along the entry.
# UniProt O60260: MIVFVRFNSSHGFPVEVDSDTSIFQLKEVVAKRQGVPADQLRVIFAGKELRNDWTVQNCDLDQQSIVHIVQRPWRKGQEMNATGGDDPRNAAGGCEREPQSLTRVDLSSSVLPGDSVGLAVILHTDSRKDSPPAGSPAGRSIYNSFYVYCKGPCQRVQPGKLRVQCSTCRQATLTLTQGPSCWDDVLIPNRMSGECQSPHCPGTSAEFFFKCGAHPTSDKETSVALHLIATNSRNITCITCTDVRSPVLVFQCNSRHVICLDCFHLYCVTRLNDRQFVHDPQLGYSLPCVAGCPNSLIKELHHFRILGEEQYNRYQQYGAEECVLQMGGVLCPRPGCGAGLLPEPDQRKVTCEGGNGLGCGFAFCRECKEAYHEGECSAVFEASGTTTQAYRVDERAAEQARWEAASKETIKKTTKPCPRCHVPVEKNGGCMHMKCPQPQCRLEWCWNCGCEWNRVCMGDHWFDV
# UniProt P31946: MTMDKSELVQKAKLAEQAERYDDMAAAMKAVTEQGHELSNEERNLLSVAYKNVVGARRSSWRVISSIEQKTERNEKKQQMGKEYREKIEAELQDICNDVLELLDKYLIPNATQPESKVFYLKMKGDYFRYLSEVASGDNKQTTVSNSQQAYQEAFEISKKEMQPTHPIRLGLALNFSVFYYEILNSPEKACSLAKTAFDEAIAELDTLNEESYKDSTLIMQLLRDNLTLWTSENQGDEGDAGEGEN
# UniProt P02679, residues 27-453: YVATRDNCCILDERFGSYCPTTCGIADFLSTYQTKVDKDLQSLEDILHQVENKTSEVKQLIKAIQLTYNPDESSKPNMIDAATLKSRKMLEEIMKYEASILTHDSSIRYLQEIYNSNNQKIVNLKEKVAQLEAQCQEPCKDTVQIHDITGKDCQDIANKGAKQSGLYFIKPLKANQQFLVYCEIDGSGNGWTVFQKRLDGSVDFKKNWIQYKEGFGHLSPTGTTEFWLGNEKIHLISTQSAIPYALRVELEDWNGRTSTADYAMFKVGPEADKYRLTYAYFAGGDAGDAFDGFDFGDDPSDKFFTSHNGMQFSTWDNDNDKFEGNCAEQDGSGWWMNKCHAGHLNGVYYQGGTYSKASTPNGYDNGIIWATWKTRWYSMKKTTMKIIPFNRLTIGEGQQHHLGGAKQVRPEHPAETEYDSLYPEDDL
# UniProt P78417: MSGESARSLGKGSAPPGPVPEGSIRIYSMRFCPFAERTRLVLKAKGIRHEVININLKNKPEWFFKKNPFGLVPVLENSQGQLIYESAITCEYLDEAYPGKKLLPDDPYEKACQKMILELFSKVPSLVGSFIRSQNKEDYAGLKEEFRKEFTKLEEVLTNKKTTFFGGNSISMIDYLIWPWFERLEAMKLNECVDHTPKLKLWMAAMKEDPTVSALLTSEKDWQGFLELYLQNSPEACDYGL
# UniProt P08514, residues 32-1039: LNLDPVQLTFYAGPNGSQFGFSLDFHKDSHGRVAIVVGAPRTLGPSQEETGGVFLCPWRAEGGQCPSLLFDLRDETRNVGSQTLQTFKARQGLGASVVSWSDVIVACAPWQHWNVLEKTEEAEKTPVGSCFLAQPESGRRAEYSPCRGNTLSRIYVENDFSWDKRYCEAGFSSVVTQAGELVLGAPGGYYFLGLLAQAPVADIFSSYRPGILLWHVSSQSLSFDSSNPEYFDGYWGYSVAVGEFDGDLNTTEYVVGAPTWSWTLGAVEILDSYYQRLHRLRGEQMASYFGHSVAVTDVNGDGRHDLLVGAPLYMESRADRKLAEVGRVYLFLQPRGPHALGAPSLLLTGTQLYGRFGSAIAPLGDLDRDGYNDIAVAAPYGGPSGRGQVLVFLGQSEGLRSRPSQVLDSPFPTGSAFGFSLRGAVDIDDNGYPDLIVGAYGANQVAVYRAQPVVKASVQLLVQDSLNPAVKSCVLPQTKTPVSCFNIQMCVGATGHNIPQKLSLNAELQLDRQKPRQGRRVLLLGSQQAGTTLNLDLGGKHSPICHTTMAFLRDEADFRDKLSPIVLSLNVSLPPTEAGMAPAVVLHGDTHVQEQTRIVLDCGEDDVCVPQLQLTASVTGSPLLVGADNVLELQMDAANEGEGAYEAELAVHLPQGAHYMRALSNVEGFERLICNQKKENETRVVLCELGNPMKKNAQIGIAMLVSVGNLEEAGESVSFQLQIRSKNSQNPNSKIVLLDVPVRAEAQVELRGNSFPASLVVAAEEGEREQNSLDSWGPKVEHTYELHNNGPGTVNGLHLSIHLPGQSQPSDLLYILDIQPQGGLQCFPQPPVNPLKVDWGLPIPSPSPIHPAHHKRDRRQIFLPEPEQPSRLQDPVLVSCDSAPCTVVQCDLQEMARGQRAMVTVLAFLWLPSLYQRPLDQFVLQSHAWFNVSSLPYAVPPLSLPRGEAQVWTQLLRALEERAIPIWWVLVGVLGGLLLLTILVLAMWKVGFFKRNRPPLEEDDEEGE
# UniProt P05556: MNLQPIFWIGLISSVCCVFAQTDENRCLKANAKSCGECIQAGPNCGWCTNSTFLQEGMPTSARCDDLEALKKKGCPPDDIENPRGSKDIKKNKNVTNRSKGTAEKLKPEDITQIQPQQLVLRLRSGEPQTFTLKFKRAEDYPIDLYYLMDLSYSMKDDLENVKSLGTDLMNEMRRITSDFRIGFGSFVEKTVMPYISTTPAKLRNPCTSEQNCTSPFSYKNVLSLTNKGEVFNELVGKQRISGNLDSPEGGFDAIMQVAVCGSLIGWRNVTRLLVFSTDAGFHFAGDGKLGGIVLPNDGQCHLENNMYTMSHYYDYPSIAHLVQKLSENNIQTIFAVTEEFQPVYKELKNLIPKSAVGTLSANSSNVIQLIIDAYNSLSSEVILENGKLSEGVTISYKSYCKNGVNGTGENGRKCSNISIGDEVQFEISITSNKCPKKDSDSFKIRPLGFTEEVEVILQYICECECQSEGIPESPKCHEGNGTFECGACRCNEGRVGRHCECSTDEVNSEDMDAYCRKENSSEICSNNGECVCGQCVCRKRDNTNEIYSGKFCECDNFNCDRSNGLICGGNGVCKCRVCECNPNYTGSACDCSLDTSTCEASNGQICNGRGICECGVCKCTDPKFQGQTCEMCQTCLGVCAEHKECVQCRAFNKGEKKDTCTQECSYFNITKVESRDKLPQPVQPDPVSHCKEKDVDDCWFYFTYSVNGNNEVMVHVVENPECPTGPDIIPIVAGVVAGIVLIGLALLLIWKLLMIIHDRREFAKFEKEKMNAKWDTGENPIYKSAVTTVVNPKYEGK
# UniProt O95182: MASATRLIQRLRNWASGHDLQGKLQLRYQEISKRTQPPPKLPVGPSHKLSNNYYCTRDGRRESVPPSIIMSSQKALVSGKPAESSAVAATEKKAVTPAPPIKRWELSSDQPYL
# UniProt Q0ZGT2: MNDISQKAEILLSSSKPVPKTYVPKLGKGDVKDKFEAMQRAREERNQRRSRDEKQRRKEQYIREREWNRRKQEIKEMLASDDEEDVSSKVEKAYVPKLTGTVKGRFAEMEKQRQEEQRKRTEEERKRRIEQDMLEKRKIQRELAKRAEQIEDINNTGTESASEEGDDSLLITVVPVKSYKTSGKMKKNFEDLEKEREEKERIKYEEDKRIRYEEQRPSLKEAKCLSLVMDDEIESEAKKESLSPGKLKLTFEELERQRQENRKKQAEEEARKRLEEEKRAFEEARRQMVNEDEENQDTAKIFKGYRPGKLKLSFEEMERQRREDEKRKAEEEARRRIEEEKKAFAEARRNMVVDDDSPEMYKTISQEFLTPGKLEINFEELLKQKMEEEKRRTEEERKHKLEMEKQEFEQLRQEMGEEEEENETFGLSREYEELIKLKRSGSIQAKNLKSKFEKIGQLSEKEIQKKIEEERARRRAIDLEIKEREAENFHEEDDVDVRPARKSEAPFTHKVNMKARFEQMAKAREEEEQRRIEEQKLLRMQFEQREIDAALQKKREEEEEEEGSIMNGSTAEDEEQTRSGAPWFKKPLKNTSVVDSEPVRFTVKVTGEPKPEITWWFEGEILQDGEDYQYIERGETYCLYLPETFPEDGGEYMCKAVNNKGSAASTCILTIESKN
# UniProt P02775, residues 35-128: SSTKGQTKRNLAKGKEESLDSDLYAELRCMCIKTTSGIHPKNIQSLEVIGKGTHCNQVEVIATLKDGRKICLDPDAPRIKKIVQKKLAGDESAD
# UniProt P61960: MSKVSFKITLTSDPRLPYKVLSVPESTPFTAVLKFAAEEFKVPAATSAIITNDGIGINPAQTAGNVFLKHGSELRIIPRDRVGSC
# UniProt P10644: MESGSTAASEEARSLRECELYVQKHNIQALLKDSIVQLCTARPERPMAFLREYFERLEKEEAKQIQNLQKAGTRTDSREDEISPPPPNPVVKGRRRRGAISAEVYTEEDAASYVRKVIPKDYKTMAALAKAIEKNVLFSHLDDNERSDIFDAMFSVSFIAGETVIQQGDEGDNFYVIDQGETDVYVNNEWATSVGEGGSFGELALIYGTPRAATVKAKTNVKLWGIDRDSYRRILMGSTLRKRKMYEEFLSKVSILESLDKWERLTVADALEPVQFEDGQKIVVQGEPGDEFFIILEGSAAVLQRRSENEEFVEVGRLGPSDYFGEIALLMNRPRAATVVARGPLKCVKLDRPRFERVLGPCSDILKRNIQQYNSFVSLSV
# UniProt P04275, residues 764-2813: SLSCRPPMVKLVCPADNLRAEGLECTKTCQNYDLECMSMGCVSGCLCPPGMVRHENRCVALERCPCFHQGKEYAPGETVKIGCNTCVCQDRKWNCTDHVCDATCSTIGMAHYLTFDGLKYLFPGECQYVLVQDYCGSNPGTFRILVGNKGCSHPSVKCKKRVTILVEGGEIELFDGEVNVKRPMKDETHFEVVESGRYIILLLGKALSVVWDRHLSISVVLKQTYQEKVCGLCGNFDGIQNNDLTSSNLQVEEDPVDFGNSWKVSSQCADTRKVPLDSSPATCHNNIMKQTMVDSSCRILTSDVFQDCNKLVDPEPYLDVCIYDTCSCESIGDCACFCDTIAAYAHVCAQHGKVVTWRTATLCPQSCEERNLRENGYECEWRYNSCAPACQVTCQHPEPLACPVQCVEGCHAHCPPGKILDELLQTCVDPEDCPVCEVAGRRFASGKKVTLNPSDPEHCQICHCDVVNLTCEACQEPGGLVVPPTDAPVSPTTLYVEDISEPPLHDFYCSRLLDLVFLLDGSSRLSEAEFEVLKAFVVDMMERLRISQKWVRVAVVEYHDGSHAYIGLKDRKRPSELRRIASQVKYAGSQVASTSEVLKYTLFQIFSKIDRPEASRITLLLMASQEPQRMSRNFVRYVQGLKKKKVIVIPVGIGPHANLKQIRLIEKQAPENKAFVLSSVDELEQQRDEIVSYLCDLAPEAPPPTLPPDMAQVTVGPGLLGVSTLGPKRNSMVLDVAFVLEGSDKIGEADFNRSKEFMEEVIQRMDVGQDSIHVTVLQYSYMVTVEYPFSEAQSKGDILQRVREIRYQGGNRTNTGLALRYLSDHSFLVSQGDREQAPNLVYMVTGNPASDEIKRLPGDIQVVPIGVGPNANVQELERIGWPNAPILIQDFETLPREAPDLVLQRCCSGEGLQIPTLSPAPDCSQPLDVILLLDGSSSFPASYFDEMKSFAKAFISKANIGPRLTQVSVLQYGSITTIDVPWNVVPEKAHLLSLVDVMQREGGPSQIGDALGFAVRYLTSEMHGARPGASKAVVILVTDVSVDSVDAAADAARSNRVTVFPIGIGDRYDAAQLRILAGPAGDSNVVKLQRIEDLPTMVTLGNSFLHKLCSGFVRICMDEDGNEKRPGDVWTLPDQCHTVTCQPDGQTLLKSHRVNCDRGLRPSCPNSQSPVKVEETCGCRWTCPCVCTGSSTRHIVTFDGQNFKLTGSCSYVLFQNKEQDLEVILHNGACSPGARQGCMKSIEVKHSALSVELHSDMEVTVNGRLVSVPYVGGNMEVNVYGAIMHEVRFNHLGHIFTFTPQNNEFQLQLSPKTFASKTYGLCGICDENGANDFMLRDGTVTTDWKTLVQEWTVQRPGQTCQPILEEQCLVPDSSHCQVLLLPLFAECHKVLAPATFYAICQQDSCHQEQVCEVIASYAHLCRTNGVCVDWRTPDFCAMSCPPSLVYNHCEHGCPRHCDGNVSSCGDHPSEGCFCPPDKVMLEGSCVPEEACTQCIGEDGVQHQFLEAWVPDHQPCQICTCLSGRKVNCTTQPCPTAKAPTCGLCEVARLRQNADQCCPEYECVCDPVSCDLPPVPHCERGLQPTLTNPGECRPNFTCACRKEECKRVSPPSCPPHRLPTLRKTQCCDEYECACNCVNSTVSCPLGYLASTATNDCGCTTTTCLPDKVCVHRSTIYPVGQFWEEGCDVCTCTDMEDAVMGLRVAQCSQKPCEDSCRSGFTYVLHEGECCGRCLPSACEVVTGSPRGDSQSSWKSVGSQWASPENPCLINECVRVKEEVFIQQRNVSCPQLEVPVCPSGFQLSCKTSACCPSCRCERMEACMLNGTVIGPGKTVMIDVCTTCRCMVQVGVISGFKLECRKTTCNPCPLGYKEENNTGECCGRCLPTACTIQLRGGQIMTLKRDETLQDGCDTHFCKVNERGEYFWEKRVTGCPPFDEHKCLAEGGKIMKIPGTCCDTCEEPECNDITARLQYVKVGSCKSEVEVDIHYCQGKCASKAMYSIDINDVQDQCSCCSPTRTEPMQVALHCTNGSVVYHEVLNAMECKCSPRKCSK
# These are yes or no findings as the source states them, for the method shown. Binding seen in cells or lysates may run through a third protein. Here binding means that the protein was enriched with, or labelled near, the bait; the list need not be complete.
# B1: Glutathione S-transferase Mu 3 (protein, UniProt P21266 1-225)
# chain: MSCESSMVLGYWDIRGLAHAIRLLLEFTDTSYEEKRYTCGEAPDYDRSQWLDVKFKLDLDFPNLPYLLDGKNKITQSNAILRYIARKHNMCGETEEEKIRVDIIENQVMDFRTQLIRLCYSSDHEKLKPQYLEELPGQLKQFSMFLGKFSWFAGEKLTFVDFLTYDILDQNRIFDPKCLDEFPNLKAFMCRFEALEKIAAYLQSDQFCKMPINNKMAQWGNKPVC
# B2: (E3-independent) E2 ubiquitin-conjugating enzyme (protein, UniProt Q9C0C9 1-1292)
# chain: MADPAAPTPAAPAPAQAPAPAPEAVPAPAAAPVPAPAPASDSASGPSSDSGPEAGSQRLLFSHDLVSGRYRGSVHFGLVRLIHGEDSDSEGEEEGRGSSGCSEAGGAGHEEGRASPLRRGYVRVQWYPEGVKQHVKETKLKLEDRSVVPRDVVRHMRSTDSQCGTVIDVNIDCAVKLIGTNCIIYPVNSKDLQHIWPFMYGDYIAYDCWLGKVYDLKNQIILKLSNGARCSMNTEDGAKLYDVCPHVSDSGLFFDDSYGFYPGQVLIGPAKIFSSVQWLSGVKPVLSTKSKFRVVVEEVQVVELKVTWITKSFCPGGTDSVSPPPSVITQENLGRVKRLGCFDHAQRQLGERCLYVFPAKVEPAKIAWECPEKNCAQGEGSMAKKVKRLLKKQVVRIMSCSPDTQCSRDHSMEDPDKKGESKTKSEAESASPEETPDGSASPVEMQDEGAEEPHEAGEQLPPFLLKEGRDDRLHSAEQDADDEAADDTDDTSSVTSSASSTTSSQSGSGTSRKKSIPLSIKNLKRKHKRKKNKITRDFKPGDRVAVEVVTTMTSADVMWQDGSVECNIRSNDLFPVHHLDNNEFCPGDFVVDKRVQSCPDPAVYGVVQSGDHIGRTCMVKWFKLRPSGDDVELIGEEEDVSVYDIADHPDFRFRTTDIVIRIGNTEDGAPHKEDEPSVGQVARVDVSSKVEVVWADNSKTIILPQHLYNIESEIEESDYDSVEGSTSGASSDEWEDDSDSWETDNGLVEDEHPKIEEPPIPPLEQPVAPEDKGVVISEEAATAAVQGAVAMAAPMAGLMEKAGKDGPPKSFRELKEAIKILESLKNMTVEQLLTGSPTSPTVEPEKPTREKKFLDDIKKLQENLKKTLDNVAIVEEEKMEAVPDVERKEDKPEGQSPVKAEWPSETPVLCQQCGGKPGVTFTSAKGEVFSVLEFAPSNHSFKKIEFQPPEAKKFFSTVRKEMALLATSLPEGIMVKTFEDRMDLFSALIKGPTRTPYEDGLYLFDIQLPNIYPAVPPHFCYLSQCSGRLNPNLYDNGKVCVSLLGTWIGKGTERWTSKSSLLQVLISIQGLILVNEPYYNEAGFDSDRGLQEGYENSRCYNEMALIRVVQSMTQLVRRPPEVFEQEIRQHFSTGGWRLVNRIESWLETHALLEKAQALPNGVPKASSSPEPPAVAELSDSGQQEPEDGGPAPGEASQGSDSEGGAQGLASASRDHTDQTSETAPDASVPPSVKPKKRRKSYRSFLPEKSGYPDIGFPLFPLSKGFIKSIRGVLTQFRAALLEAGMPECTEDK
# Target: Parkin (human (endogenous in platelets)) (UniProt O60260)
# Test: affinity purification with mass spectrometry; IP with Parkin-specific antibodies from human DM platelet lysate; silver-stained gel, 10 bands enriched in DM against HC cut out; in-gel trypsin digestion, LC-MS/MS, Mascot search
row,Molecule,binding
1,"10 kDa heat shock protein, mitochondrial (from UniProt P61604 1-102)",binds
2,14-3-3 protein beta/alpha (from UniProt P31946 1-246),binds
3,14-3-3 protein epsilon (from UniProt P62258 1-255),binds
4,14-3-3 protein zeta/delta (from UniProt P63104 1-245),binds
5,"ATP synthase subunit g, mitochondrial (from UniProt O75964 1-103)",binds
6,Acidic leucine-rich nuclear phosphoprotein 32 family member B (from UniProt Q92688 1-251),binds
7,Adenylyl cyclase-associated protein 1 (from UniProt Q01518 1-475),binds
8,Amyloid beta A4 protein (from UniProt P05067 18-770),binds
9,Angiopoietin-rrelated protein 5 (from UniProt Q86XS5 26-388),binds
10,Antithrombin-III (from UniProt P01008 33-464),binds
11,Calreticulin (from UniProt P27797 18-417),binds
12,Coagulation factor V (from UniProt P12259 29-2224),binds
13,Coagulation factor X (from UniProt P00742 41-488),binds
14,Coagulation factor XIII A chain (from UniProt P00488),binds
15,"Cytochrome c oxidase subunit 5B, mitochondrial (from UniProt P10606 32-129)",binds
16,Cytochrome c oxidase subunit NDUFA4 (from UniProt O00483 1-81),binds
17,DnaJ homolog subfamily A member 2 (from UniProt O60884 1-412),binds
18,"Dynein light chain 1, cytoplasmic (from UniProt P63167 1-89)",binds
19,E3 ubiquitin-protein ligase MYCBP2 (from UniProt O75592 1-4678),binds
20,E3 ubiquitin-protein ligase UBR4 (from UniProt Q5T4S7 1-5183),binds
21,EMILIN-1 (from UniProt Q9Y6C2 22-1016),binds

row,Molecule,binding
1,Fermitin family homolog 3 (from UniProt Q86UX7 1-667),binds
2,Fibrinogen alpha chain (from UniProt P02671 36-866),binds
3,Fibrinogen beta chain (from UniProt P02675 45-491),binds
4,Fibrinogen gamma chain (from UniProt P02679 27-453),binds
5,Fibronectin (from UniProt P02751 32-2477),binds
6,Glutathione S-transferase omega-1 (from UniProt P78417 1-241),binds
7,Huntingtin (from UniProt P42858 1-3142),binds
8,Importin subunit beta-1 (from UniProt Q14974 1-876),binds
9,Integrin alpha-IIb (from UniProt P08514 32-1039),binds
10,Integrin beta-1 (from UniProt P05556 21-798),binds
11,Integrin beta-3 (from UniProt P05106 27-788),binds
12,Integrin-linked protein kinase (from UniProt Q13418 1-452),binds
13,NADH dehydrogenase (ubiquinone)1 alpha subcomplex subunit 12 (from UniProt Q9UI09 1-145),binds
14,NADH dehydrogenase (ubiquinone) 1 alpha subcomplex subunit 7 (from UniProt O95182 1-113),binds
15,NADH dehydrogenase (ubiquinone) iron–sulfur protein 5 (from UniProt O43920 1-106),binds
16,NADH dehydrogenase [ubiquinone] 1 alpha subcomplex subunit 2 (from UniProt O43678 1-99),binds
17,Nexilin (from UniProt Q0ZGT2 1-675),binds
18,Plasminogen (from UniProt P00747),binds
19,Platelet basic protein (from UniProt P02775 35-128),binds
20,Platelet glycoprotein 4 (from UniProt P16671 1-472),binds
21,Proteasome activator complex subunit 1 (from UniProt Q06323 1-249),binds

row,Molecule,binding
1,Proteasome activator complex subunit 2 (from UniProt Q9UL46 1-239),binds
2,Proteasome subunit beta type-7 (from UniProt Q99436),binds
3,Protein S100-A4 (from UniProt P26447 1-101),binds
4,Protein disulfide-isomerase (from UniProt P07237 18-508),binds
5,Protein disulfide-isomerase A3 (from UniProt P30101 25-505),binds
6,Rho-Associated protein kinase 2 (from UniProt O75116 1-1388),binds
7,Serum amyloid P-component (from UniProt P02743 20-223),binds
8,Signal transducer and activator of transcription 3 (from UniProt P40763 1-770),binds
9,Src kinase-associated phosphoprotein 2 (from UniProt O75563 1-359),binds
10,Thrombospondin-1 (from UniProt P07996 19-1170),binds
11,Transforming growth factor beta-1 (from UniProt P01137 279-390),binds
12,Transforming growth factor beta-1-induced transcript 1 protein (from UniProt O43294 1-461),binds
13,Transitional endoplasmic reticulum ATPase (from UniProt P55072 1-806),binds
14,"Trifunctional enzyme subunit alpha, mitochondrial (from UniProt P40939 37-763)",binds
15,Tropomyosin alpha-4 chain (from UniProt P67936 1-248),binds
16,Ubiquitin carboxyl-terminal hydrolase 5 (from UniProt P45974 1-858),binds
17,Ubiquitin-Conjugating enzyme E2 N (from UniProt P61088 1-152),binds
18,Ubiquitin-Fold modifier 1 (from UniProt P61960 1-85),binds
19,V-type proton ATPase subunit G 1 (from UniProt O75348 1-118),binds
20,cAMP-dependent protein kinase type I-alpha regulatory subunit (from UniProt P10644 1-381),binds
21,von Willebrand factor (from UniProt P04275 764-2813),binds

# Target: Parkin (human (endogenous in platelets)) (UniProt O60260)
# Test: as above
# Remark: another data set of the same source
row,Molecule,binding
1,B1,binds
2,B2,binds
